For 19 compounds, survivor count and T/C results are on record in PubChem BioAssay AID200 (DTP/NCI, 2004).

The list does not hold the whole screen: it is rich in T/C values a quarter to a half above the control, in often repeated tests (any T/C) and in doses without a T/C. Further doses and runs are listed elsewhere. T/C is the treated group as % of the vehicle group. Some doses have a count of surviving animals in place of a T/C: the source files T/C as zero there, which appears to mark a toxic dose or a test without result, not a measured value. Some survivor counts are full or nearly so, which does not show that the dose was tolerated: the source hardly ever lists a survival T/C far under the control, and the zero likely stands for such cases as well. Counts of survivors are from the toxicity check (mostly the fifth day) where no day follows; animals may have died later. Schedules are NCI's codes, taken here to give the interval after Q, in days (D) or hours (H), and the number of doses after X. Some entries were tested several times; the results are listed from low to high. For survival time, this PubChem deposit counts one and a half times the control or more as active, and values a quarter to a half above the control carry no call in these data; other NCI protocols may use other cut-offs. Counts like (3×) give the number of equal values in this list. Some T/C values carry the count of animals alive at the toxicity check (mostly the fifth day); where none is given, no animal had died by that day.

In the experiment the test system is B6C3F1 mice, B16 melanoma ip, median survival T/C. Description: NCI In Vivo Anticancer Drug Screen. Data for tumor model B16 Melanoma (intraperitoneal) in B6C3F1 mice. To be noted: T/C endpoint: median survival time, higher T/C = longer survival. The essentials: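 Transplantable tumor in mice; treated vs vehicle control groups; survival or tumor size measured; value = T/C ratio.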

Where [1] appears, read: dose: 3.0 mg/kg/injection, schedule: Q01DX009 (ip), vehicle: saline.
Setting [2] is: dose: 4.0 mg/kg/injection, schedule: Q01DX009 (ip), vehicle: saline.
[3] abbreviates: dose: 8.0 mg/kg/injection, schedule: Q01DX009 (ip), vehicle: saline.
The mark [4] stands for this setting: dose: 25.0 mg/kg/injection, schedule: Q01DX009 (ip), vehicle: saline.
Where [5] appears, read: dose: 100.0 mg/kg/injection, schedule: Q01DX009 (ip), vehicle: saline.
[6] abbreviates: dose: 200.0 mg/kg/injection, schedule: Q01DX009 (ip), vehicle: saline.
Setting [7] is: dose: 400.0 mg/kg/injection, schedule: Q01DX009 (ip), vehicle: saline.
[8] abbreviates: dose: 100.0 mg/kg/injection, schedule: Q01DX009 (ip), vehicle: saline with Tween-80.
The mark [9] stands for this setting: dose: 50.0 mg/kg/injection, schedule: Q01DX009 (ip), vehicle: saline.
Setting [10] is: dose: 600.0 mg/kg/injection, schedule: Q01DX009 (ip), vehicle: saline.
Setting [11] is: dose: 80.0 mg/kg/injection, schedule: Q01DX009 (ip), vehicle: Klucel (hydroxypropylcellulose) (HPC).
Setting [12] is: dose: 100.0 mg/kg/injection, schedule: Q01DX009 (ip), vehicle: Klucel (hydroxypropylcellulose) (HPC).
Where [13] appears, read: dose: 200.0 mg/kg/injection, schedule: Q01DX009 (ip), vehicle: Klucel (hydroxypropylcellulose) (HPC).
Setting [14] is: dose: 50.0 mg/kg/injection, schedule: Q01DX009 (ip), vehicle: saline with Tween-80.
[15] abbreviates: dose: 200.0 mg/kg/injection, schedule: Q01DX009 (ip), vehicle: water.
Setting [16] is: dose: 400.0 mg/kg/injection, schedule: Q01DX009 (ip), vehicle: water.

For the compound `Nc1ncn(C2OC(CO)C(O)C2O)c(=O)n1` (stereo unspecified), the survivor count (dose: 1.0 mg/kg/injection, schedule: Q01DX009 (ip), vehicle: saline) is 10 of 10; the survivor count (dose: 2.0 mg/kg/injection, schedule: Q01DX009 (ip), vehicle: saline) is 9 of 10; the survivor count under setting [2] was 9 of 10; the survivor count under setting [3] was 10 of 10; the survivor count (dose: 12.0 mg/kg/injection, schedule: Q01DX009 (ip), vehicle: saline) is listed as 10 of 10; the survivor count (dose: 16.0 mg/kg/injection, schedule: Q01DX009 (ip), vehicle: saline) is on record as 9 of 10. In addition, the survivor count by setting is: (dose: 32.0 mg/kg/injection, schedule: Q01DX009 (ip), vehicle: saline) 2 of 10; under setting [7], 10 of 10. Besides, the T/C runs as follows: under setting [1], 131 % of control; under setting [4], 126 % of control; under setting [5], 131, 134, 137 % of control; under setting [6], 134 and 141 % of control; under setting [7], 145 % of control.

Turning to `CC1(c2ccc(Cl)cc2)OC(=O)C(=Cc2ccc([N+](=O)[O-])s2)C(=O)O1` (stereo unspecified), the survivor count is given as 10 of 10 under setting [8] and 7 of 10 (dose: 200.0 mg/kg/injection, schedule: Q01DX009 (ip), vehicle: saline with Tween-80).

For `NCc1ccc(O)c(O)c1`, the T/C under setting [9] is 102 (2×), 111, 112 % of control; the T/C under setting [5] was 100 [9 of 10 alive], 112, 123 [9 of 10 alive], 142 % of control; the T/C (dose: 112.5 mg/kg/injection, schedule: Q03HX024 (ip), vehicle: saline) was 138 % of control (2×); the T/C (dose: 150.0 mg/kg/injection, schedule: Q01DX009 (ip), vehicle: saline) is 125 % of control; the T/C under setting [6] is 110 (2×), 125, 148 % of control [9 of 10 alive]; the T/C (dose: 300.0 mg/kg/injection, schedule: Q01DX009 (ip), vehicle: saline) was 127 % of control. Also, the T/C by setting is: (dose: 300.0 mg/kg/injection, schedule: Q03HX024 (ip), vehicle: saline) 142 % of control (2×); under setting [7], 133 % of control; under setting [10], 125 % of control; (dose: 800.0 mg/kg/injection, schedule: Q01DX009 (ip), vehicle: saline) 118, 119, 132, 137 % of control. Also, the survivor count was 8 of 10 and 10 of 10 under setting [10]; 10 of 10 (dose: 1200.0 mg/kg/injection, schedule: Q01DX009 (ip), vehicle: saline).

For the compound `C=C1C(=O)OC2/C=C(\C)CC/C=C(/C)CC(OC(=O)/C(=C/CO)CO)C12` (stereo unspecified), under setting [11], the survivor count was 0 of 7.

With `O=NN(CCF)C(=O)N[C@H]1CCCC[C@H]1O`, for the setting “dose: 15.0 mg/kg/injection, schedule: Q01DX001 (ip), vehicle: saline”, the T/C was 147 % of control. Moreover, the survivor count (dose: 120.0 mg/kg/injection, schedule: Q01DX001 (ip), vehicle: saline) was 5 of 10 on day 6.

With `CC1=C[S+](c2ccccc2)c2cccc3cc4ccccc4c1c23` (stereo unspecified), the survivor count is, setting by setting: (dose: 4.0 mg/kg/injection, schedule: Q01DX009 (ip), vehicle: saline with Tween-80) 9 of 10; (dose: 8.0 mg/kg/injection, schedule: Q01DX009 (ip), vehicle: saline with Tween-80) 6 of 10.

In the case of `C=C(C)[C@@H]1CC[C@]2(C(=O)OC)CC[C@]3(C)[C@H](CC[C@@H]4[C@@]5(C)CC[C@H](O)C(C)(C)[C@@H]5CC[C@]43C)[C@@H]12`, the survivor count by setting is: under setting [12], 10 of 10; under setting [13], 10 of 10.

Consider `O=C(Nc1ccc(C(=O)O)cc1)Nc1nccs1`, for which the T/C runs as follows: (dose: 25.0 mg/kg/injection, schedule: Q01DX009 (ip), vehicle: distilled water + Tween-80) 130 % of control; (dose: 50.0 mg/kg/injection, schedule: Q01DX009 (ip), vehicle: distilled water + Tween-80) 127 % of control; (dose: 100.0 mg/kg/injection, schedule: Q01DX009 (ip), vehicle: distilled water + Tween-80) 137 % of control; (dose: 200.0 mg/kg/injection, schedule: Q01DX009 (ip), vehicle: distilled water + Tween-80) 128 % of control.

On to `Cc1cnc(/C=N\NC(N)=S)c2cccc(N)c12`, for which the T/C is 128 % of control (dose: 12.0 mg/kg/injection, schedule: Q01DX009 (ip), vehicle: saline with Tween-80); 127 % of control (dose: 24.0 mg/kg/injection, schedule: Q01DX009 (ip), vehicle: saline with Tween-80); 132 % of control (dose: 48.0 mg/kg/injection, schedule: Q01DX009 (ip), vehicle: saline with Tween-80).

In the case of `O=Cc1ccc(O)c(O)c1`, the survivor count under setting [14] was 10 of 10, the survivor count under setting [15] is reported as 10 of 10 and the survivor count under setting [16] was 8 of 10.

As for `CC(C)(C)C1CCCCC1`, the survivor count under setting [12] is reported as 10 of 10; the survivor count under setting [13] is 10 of 10; the survivor count (dose: 400.0 mg/kg/injection, schedule: Q01DX009 (ip), vehicle: Klucel (hydroxypropylcellulose) (HPC)) is reported as 10 of 10.

With `CCCCCCCCCCCCSC1=C(Cl)C(=O)C(OC)=C(OC)C1=O`, the survivor count under setting [8] is given as 2 of 10.

In the case of `CN(N=O)C(N)=O`, the T/C under setting [1] is 142 % of control and the T/C (dose: 6.0 mg/kg/injection, schedule: Q01DX009 (ip), vehicle: saline) is 127 % of control. Further, the survivor count under setting [4] is listed as 8 of 8 and the survivor count under setting [9] is 8 of 8.

With `Nc1c(Cl)[nH]cnc1=S`, the survivor count under setting [6] is recorded as 7 of 10 and the survivor count under setting [7] is reported as 8 of 10.

`COC(OC(CO)C(O)S(=O)(=O)O)C(O)S(=O)(=O)O` (stereo unspecified): the T/C was 133 % of control under setting [9] and 135 % of control under setting [6]. For the same compound, the survivor count under setting [7] is reported as 5 of 10.

With `Cc1cc(N(CC(C)Br)CC(C)Br)ccc1N=Nc1ccccc1C(=O)O` (stereo unspecified), the survivor count reads like this: (dose: 0.78 mg/kg/injection, schedule: Q01DX009 (ip), vehicle: saline with Tween-80) 6 of 10; (dose: 12.5 mg/kg/injection, schedule: Q01DX009 (ip), vehicle: saline with Tween-80) 6 of 10 and 10 of 10; (dose: 25.0 mg/kg/injection, schedule: Q01DX009 (ip), vehicle: saline with Tween-80) 9 of 10; under setting [14], 8 of 10; under setting [8], 0 of 10. The T/C by setting is: (dose: 6.25 mg/kg/injection, schedule: Q01DX009 (ip), vehicle: saline with Tween-80) 143 % of control [9 of 10 alive]; (dose: 12.5 mg/kg/injection, schedule: Q01DX009 (ip), vehicle: saline) 129 % of control.

Regarding `CC(C)[C@](O)(C(=O)OCC1=CCN2CC[C@@H](O)[C@@H]12)[C@H](C)O`, the T/C was 127 % of control (dose: 100.0 mg/kg/injection, schedule: Q01DX009 (ip), vehicle: water); 133 % of control under setting [15]; 128 [9 of 10 alive] and 144 % of control under setting [16]. Also, the survivor count (dose: 800.0 mg/kg/injection, schedule: Q01DX009 (ip), vehicle: water) was 0 of 10 and 2 of 10.

`COc1cccc2c1C(=O)c1c(O)c3c(c(O)c1C2=O)C[C@@](O)(C(=O)COC(=O)c1cccnc1)C[C@@H]3OC1CC(N)C(O)C(C)O1` (stereo partly specified): the survivor count is 10 of 10 under setting [2] and 10 of 10 under setting [3].

For the compound `CC[PH+](CC)CC[S-].CC[PH+](CC)CC[S-].[Au+].[Au+]`, the survivor count under setting [11] is 9 of 10.
